Source: PubChem BioAssay AID652243 (Drosophila RNAi Screening Center, 2013)

Assay: 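Knock-downs that decrease or increase androgen receptor reporter signal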 (primary screen)
Cells: Drosophila S2R+ cells
Reagent: long dsRNA against Drosophila genes
Timing: 72 h (48 h, then 24 h hormone)
Conditions: synthetic androgen R1881 at 10 nM for 24 h
Measurement: 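Firefly light from an androgen-responsive reporter and Renilla control light per well, raw and unnormalised, for each of two replicates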
Direction: firefly reporter light: higher = more light from androgen-responsive reporter; Renilla control light: higher = more constitutive control signal (cell number, transfection)
Active means: 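Hit when the log firefly-to-Renilla ratio dropped or increased by a fixed fold versus the mean of GFP or LacZ controls across duplicate plates; lowering cut given as 1.5 and as 3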
Meaning of the calls: active = hit: reporter lowered or raised; inactive = no hit
In all, the deposit lists about 24,000 reagents; this is an unselected part of those with a known target gene and a result. Of all reagents, 246 (1%) were called active. 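Plates not normalised; calls are printed but the firefly/Renilla ratio behind them is not deposited; fold cut for lowering reported inconsistently.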 Raw values vary from plate to plate and are shown uncorrected. Unmarked entries are inactive. A plus sign joins genes that one reagent is predicted to hit. No sequences are given here. Not given: the amount of reagent.

no.	Gene	dsRNA	firefly reporter light, replicate 1	firefly reporter light, replicate 2	Renilla control light, replicate 1	Renilla control light, replicate 2
1	CG9452	DRSC11075	1.99e5	1.55e5	2.68e6	1.79e6
2	CG9452	DRSC23344	8.12e5	8.97e5	1.69e6	1.52e6
3	Clk (Clock)	DRSC11117	1.02e5	1.05e5	1.64e6	1.36e6
4	CG9555	DRSC03264	1.33e5	1.40e5	1.21e6	1.36e6
5	CG9555	DRSC25330	6.89e5	9.30e5	8.24e5	9.94e5
6	RluA-2 (RluA pseudouridine synthase 2)	DRSC02939	9.97e5	1.06e6	1.49e6	1.69e6
7	CG30431	DRSC04902	1.05e6	8.03e5	2.57e6	2.48e6
8	CG30431	DRSC04904	4.18e5	2.78e5	2.90e6	1.83e6
9	CG11263	DRSC09832	1.34e5	1.73e5	1.40e6	1.32e6
10	CG32485	DRSC22666	7.20e5	5.96e5	2.03e6	1.51e6
11	Hacd2 (3-hydroxyacyl-CoA dehydratase 2)	DRSC03181	2.36e5	2.23e5	1.51e6	1.47e6
12	PGS1 (Phosphatidylglycerophosphate synthase 1)	DRSC16304	3.33e5	2.62e5	2.89e6	2.93e6
13	Cda9 (Chitin deacetylase-like 9)	DRSC06593	86809	52462	1.36e6	1.36e6
14	Egm (Enigma)	DRSC07319	1.09e6	1.03e6	2.73e6	3.46e6
15	Egm (Enigma)	DRSC22860	5.22e5	1.10e6	4.83e5	6.64e5
16	CG1603	DRSC06602	8.42e5	1.19e6	1.87e6	2.93e6
17	CG1603	DRSC27982	8.51e5	3.89e5	2.87e6	1.85e6
18	schuy (schumacher-levy)	DRSC10284	1.80e5	1.54e5	1.95e6	1.92e6
19	schuy (schumacher-levy)	DRSC28184	4.19e5	5.03e5	1.25e6	8.48e5
20	CG4230	DRSC02740	5.50e5	6.78e5	1.23e6	1.17e6
21	CG33493	DRSC10642	2.88e5	2.86e5	3.18e6	2.59e6
22	CG33493	DRSC25546	7.92e5	8.27e5	1.28e6	1.17e6
23	Zip99C (Zinc/iron regulated transporter-related protein 99C)	DRSC16320	1.13e5	97013	7.98e5	5.46e5
24	CG13216	DRSC06338	1.82e5	1.52e5	8.72e5	8.58e5
25	Npc2b (Niemann-Pick type C-2b)	DRSC15464	1.42e5	1.53e5	2.13e6	2.08e6
26	aqz (aaquetzalli)	DRSC16570	1.17e5	1.33e5	2.05e6	2.44e6
27	aqz (aaquetzalli)	DRSC25042	9.02e5	7.04e5	1.52e6	1.17e6
28	AlaRS-m (Alanyl-tRNA synthetase, mitochondrial)	DRSC09660	9.09e5	9.01e5	1.16e6	1.18e6
29	AlaRS-m (Alanyl-tRNA synthetase, mitochondrial)	DRSC28250	4.00e5	8.29e5	1.56e6	2.09e6
30	BaraA1 + BaraA2	DRSC05417	77565	48787	2.49e5	1.95e5
31	Best2 (Bestrophin 2)	DRSC09712	1.04e5	1.24e5	1.06e6	1.66e6
32	IleRS (Isoleucyl-tRNA synthetase)	DRSC11667	45328	82481	4.16e5	4.76e5
33	eco (Establishment of cohesion)	DRSC11006	1.12e6	9.94e5	1.42e6	1.70e6
34	CheA29a (Chemosensory protein A 29a)	DRSC21486	9.78e5	1.08e6	2.68e6	2.03e6
35	CG9426	DRSC03219	2.75e5	2.08e5	1.73e6	1.97e6
36	CG15643	DRSC19679	3.91e5	3.73e5	2.90e6	3.29e6
37	CG15643	DRSC27051	3.78e5	2.50e5	9.73e5	5.45e5
38	Gasp	DRSC12349	68530	44002	5.58e5	5.09e5
39	Pgant9 (Polypeptide N-Acetylgalactosaminyltransferase 9)	DRSC05621	1.39e5	1.59e5	3.58e5	3.46e5
40	Pgant9 (Polypeptide N-Acetylgalactosaminyltransferase 9)	DRSC06584	1.53e5	1.44e5	2.38e6	2.38e6
41	Pgant9 (Polypeptide N-Acetylgalactosaminyltransferase 9)	DRSC07185	1.44e5	1.22e5	2.63e6	2.63e6
42	Pgant9 (Polypeptide N-Acetylgalactosaminyltransferase 9)	DRSC07186	96517	1.26e5	1.62e6	1.62e6
43	Pgant9 (Polypeptide N-Acetylgalactosaminyltransferase 9)	DRSC07187	1.67e5	1.48e5	3.01e6	3.01e6
44	Pgant9 (Polypeptide N-Acetylgalactosaminyltransferase 9)	DRSC07189	1.15e5	1.14e5	1.74e6	1.74e6
45	Sec20 (Secretory 20)	DRSC12295	58359	31865	1.87e6	1.12e6
46	Sec20 (Secretory 20)	DRSC29886	5.82e5	5.14e5	9.84e5	1.02e6
47	brv1 (brivido-1)	DRSC11076	1.09e5	1.54e5	1.69e6	1.82e6
48	CG8838	DRSC00712	8.83e5	1.12e6	9.49e5	1.21e6
49	CG8838	DRSC27117	2.82e5	3.43e5	6.53e5	7.02e5
50	CG13407	DRSC14583	2.35e5	3.63e5	4.14e6	4.42e6
51	CG13407	DRSC25675	8.14e5	1.04e6	1.33e6	1.42e6
52	CG17508	DRSC07771	78421	1.36e5	7.23e5	1.08e6
53	PpV (Protein phosphatase V)	DRSC18700	4.70e5	6.06e5	2.64e6	3.31e6
54	PpV (Protein phosphatase V)	DRSC23307	6.18e5	6.38e5	9.14e5	1.09e6
55	PpV (Protein phosphatase V)	DRSC29344	5.94e5	4.85e5	1.28e6	1.28e6
56	Tengl3 (Testis EndoG-Like 3)	DRSC22288	1.01e6	9.66e5	1.21e6	1.02e6
57	Tengl3 (Testis EndoG-Like 3)	DRSC27773	2.50e5	1.54e5	2.65e5	6.28e5
58	CG15471	DRSC18054	3.11e5	3.02e5	2.86e6	2.93e6
59	CG15471	DRSC26243	3.43e5	3.42e5	6.74e5	5.94e5

Reprinted from the entries so far for reference:
no.	Gene	dsRNA	firefly reporter light, replicate 1	firefly reporter light, replicate 2	Renilla control light, replicate 1	Renilla control light, replicate 2
31	Best2 (Bestrophin 2)	DRSC09712	1.04e5	1.24e5	1.06e6	1.66e6
32	IleRS (Isoleucyl-tRNA synthetase)	DRSC11667	45328	82481	4.16e5	4.76e5
33	eco (Establishment of cohesion)	DRSC11006	1.12e6	9.94e5	1.42e6	1.70e6
34	CheA29a (Chemosensory protein A 29a)	DRSC21486	9.78e5	1.08e6	2.68e6	2.03e6
35	CG9426	DRSC03219	2.75e5	2.08e5	1.73e6	1.97e6
36	CG15643	DRSC19679	3.91e5	3.73e5	2.90e6	3.29e6
37	CG15643	DRSC27051	3.78e5	2.50e5	9.73e5	5.45e5
38	Gasp	DRSC12349	68530	44002	5.58e5	5.09e5
